Experimental data: article PMC4489913
These are yes or no findings as the source states them, for the method shown. Binding seen in cells or lysates may run through a third protein. Some entries that bind do so weakly or less than the wild type.

Chains of the proteins cited; added tags and fusions are not shown.
UniProt Q9EPT8: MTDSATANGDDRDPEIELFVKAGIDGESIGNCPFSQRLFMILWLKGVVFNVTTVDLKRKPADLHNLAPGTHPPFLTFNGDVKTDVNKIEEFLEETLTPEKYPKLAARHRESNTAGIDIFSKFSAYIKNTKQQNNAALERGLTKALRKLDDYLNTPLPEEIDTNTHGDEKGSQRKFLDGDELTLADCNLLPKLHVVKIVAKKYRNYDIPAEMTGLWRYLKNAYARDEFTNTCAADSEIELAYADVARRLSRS
UniProt P31977: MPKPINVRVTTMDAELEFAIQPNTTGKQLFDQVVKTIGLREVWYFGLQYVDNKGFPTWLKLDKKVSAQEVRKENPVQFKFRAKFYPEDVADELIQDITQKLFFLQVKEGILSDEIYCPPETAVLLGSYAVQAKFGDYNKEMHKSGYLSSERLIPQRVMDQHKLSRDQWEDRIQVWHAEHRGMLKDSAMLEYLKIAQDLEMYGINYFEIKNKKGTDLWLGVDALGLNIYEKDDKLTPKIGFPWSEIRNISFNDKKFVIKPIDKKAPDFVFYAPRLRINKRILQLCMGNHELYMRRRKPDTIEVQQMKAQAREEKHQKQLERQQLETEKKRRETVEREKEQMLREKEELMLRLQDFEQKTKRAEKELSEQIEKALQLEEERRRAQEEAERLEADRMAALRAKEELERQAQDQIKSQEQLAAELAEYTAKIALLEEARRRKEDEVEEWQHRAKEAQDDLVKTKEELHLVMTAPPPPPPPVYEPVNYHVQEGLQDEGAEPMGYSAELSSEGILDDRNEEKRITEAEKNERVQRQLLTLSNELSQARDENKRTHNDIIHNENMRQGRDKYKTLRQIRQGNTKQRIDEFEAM

T1: Podocalyxin (rat (endogenous in Fischer 344 rat liver tumors)) (UniProt Q9WTQ2)
T1 sequence: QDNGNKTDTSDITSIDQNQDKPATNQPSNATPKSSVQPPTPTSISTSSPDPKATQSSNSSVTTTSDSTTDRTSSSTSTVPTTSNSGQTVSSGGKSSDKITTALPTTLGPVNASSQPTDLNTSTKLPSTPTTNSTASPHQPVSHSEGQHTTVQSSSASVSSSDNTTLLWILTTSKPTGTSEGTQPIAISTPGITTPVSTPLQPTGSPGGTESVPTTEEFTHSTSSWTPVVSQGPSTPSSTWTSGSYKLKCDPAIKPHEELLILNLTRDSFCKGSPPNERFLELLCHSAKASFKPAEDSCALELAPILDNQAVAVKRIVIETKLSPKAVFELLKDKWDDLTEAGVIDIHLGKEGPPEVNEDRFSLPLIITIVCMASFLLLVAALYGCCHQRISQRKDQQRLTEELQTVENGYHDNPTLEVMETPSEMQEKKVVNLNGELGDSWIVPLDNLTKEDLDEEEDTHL


Tests used:
Experiment in all cases: co-IP; 18-month rat liver tumors; Pierce Co-IP kit; immunoprecipitation with anti-EZR, anti-PODXL or anti-CLIC5 antibody, Western blot
[1] = biological target: Chloride intracellular channel 5 (rat (endogenous in Fischer 344 rat liver tumors)) (UniProt Q9EPT8)
[2] = biological target: T1, Podocalyxin (rat (endogenous in Fischer 344 rat liver tumors))
[3] = biological target: Ezrin (rat (endogenous in Fischer 344 rat liver tumors)) (UniProt P31977)

| Molecule | binding [1] | binding [2] | binding [3] |
| --- | --- | --- | --- |
| Ezrin (from UniProt P31977 1-586) | binds |  |  |
| Chloride intracellular channel 5 (from UniProt Q9EPT8 1-251) |  | binds | binds |
| Podocalyxin (protein, UniProt Q9WTQ2 25-485) QDNGNKTDTSDITSIDQNQDKPATNQPSNATPKSSVQPPTPTSISTSSPDPKATQSSNSSVTTTSDSTTDRTSSSTSTVPTTSNSGQTVSSGGKSSDKITTALPTTLGPVNASSQPTDLNTSTKLPSTPTTNSTASPHQPVSHSEGQHTTVQSSSASVSSSDNTTLLWILTTSKPTGTSEGTQPIAISTPGITTPVSTPLQPTGSPGGTESVPTTEEFTHSTSSWTPVVSQGPSTPSSTWTSGSYKLKCDPAIKPHEELLILNLTRDSFCKGSPPNERFLELLCHSAKASFKPAEDSCALELAPILDNQAVAVKRIVIETKLSPKAVFELLKDKWDDLTEAGVIDIHLGKEGPPEVNEDRFSLPLIITIVCMASFLLLVAALYGCCHQRISQRKDQQRLTEELQTVENGYHDNPTLEVMETPSEMQEKKVVNLNGELGDSWIVPLDNLTKEDLDEEEDTHL | binds |  |  |
